# Assay results: US9850308B2, “Neutralization of CD95 activity blocks invasion of glioblastoma cells in vivo” (Deutsches Krebsforschungszentrum Stiftung des oeffentlichen …, priority 2006, dated 2017)
# “Also recorded” adds a separate entry of the source. At least one structure is not confirmed: it was looked up by name or label, or the drawing left a doubt.
# Legend:
# Type in all cases: cell-based, human
# GSK3β = assay: Phosphorylation (inhibition) of GSK3β, Western Blot; details: T98G cells, pre-treatment before CD95 stimulation
# Experimental: The MAPK inhibitor, PD98059 (25 μM), the PI3K inhibitor […] (25 μM) and the pancaspase inhibitor zVAD-fmk (40 μM) were purchased from Calbiochem. The ILK inhibitor (20 μM) was kindly provided from S. Dedhar. Cells were preincubated with inhibitors 30 minutes (LY 290059 and zVAD-fmk) prior to treatment with either CD95L-T4 or αApo-1. Generation of Leucinezipper-CD95L (LZCD95L) was performed as previously described^41. The blocking agents (zVAD-fmk, PD98059, LY 290059 and KP-SD1) were given 30 minutes before treatment with LZ-CD95L or αApo-1. Cells were lysed for further biochemical analysis. Protein extraction and immunoblotting was performed as previously described^41.
# AKT = assay: Phosphorylation (activation) of AKT, Western Blot; details: T98G cells
# ERK = assay: Phosphorylation (activation) of ERK, Western Blot; details: T98G cells
compound,measurement,setting,value
O=c1cc(N2CCOCC2)oc2c(-c3ccccc3)cccc12 [LY 290059],blockade of CD95-induced GSK3β phosphorylation/inhibition,GSK3β,blocked α-Apo-1-induced activation of AKT and inhibition of GSK3β
same,blockade of CD95-induced GSK3β phosphorylation/inhibition,GSK3β; listed as LY294002,blocked CD95-induced AKT activity and ser9 phosphorylation of GSK3β
same,blockade of CD95-induced AKT activation,AKT,blocked α-Apo-1-induced activation of AKT; also recorded: blocked CD95-induced phosphorylation of AKT
same,blockade of CD95-induced AKT activation,AKT; listed as LY290059,inhibited CD95-induced phosphorylation of AKT
same,blockade of CD95-induced AKT activation,AKT; listed as LY294002,blocked CD95-induced AKT activity
same,phosphorylation status of ERK under PI3K inhibition,ERK,without changing the phosphorylation status
